{"source": "patent US20150232507A1", "about": "(ERA BIOTECH S A, published 2015)", "binders": {"B1": {"name": "DE^N: StreptagII-gpD-linker-DnaE^N fusion protein (Npu DnaE) (other)", "chain": "MASWSHPQFEKASKETFTHYQPQGNSDPAHTATAPGGLSAKAPAMTPLMLDTSSRKLVAWDGTTDGAAVGILAVAADQTSTTLTFYKSGTFRYEDVLWPEAASDETKKRTAFAGTAISIVGSCLSYETEILTVEYGLLPIGKIVEKRIECTVYSVDNNGNIYTQPVAQWHDRGEQEVFEYCLEDGSLIRATKDHKFMTVDGQMLPIDEIFERELDLMRVDNLPN"}}, "target": "T1, DE^C: DnaE^C-[C-extein]linker-Trx-EFRSHHHHHH fusion protein (Npu DnaE)", "T1 chain": "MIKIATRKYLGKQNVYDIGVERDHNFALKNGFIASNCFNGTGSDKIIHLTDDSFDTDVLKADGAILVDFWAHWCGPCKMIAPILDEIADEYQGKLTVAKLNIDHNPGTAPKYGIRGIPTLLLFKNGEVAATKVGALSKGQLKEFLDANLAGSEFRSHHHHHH", "test": "cell-based or functional assay"}
{"binder": "B1", "values": [{"measurement": "trans-splicing first order rate constant k, 25 °C", "result": 0.0034, "unit": "s⁻¹"}, {"measurement": "trans-splicing t1/2, 25 °C", "result": 3, "unit": "min"}]}
